# Some of the results follow.
# B1: Pwp7 (Candida glabrata) (protein)
# chain: MGSSHHHHHHSSGLVPRGSHMASKNPVDFPNLCQYPNLDGAVAGFDTEIYNADPSILINFSLWPILQFPKEWHKTIGRAITTQTNFKLPASDTTLFGVSIPTQNILIEFRGYFIPPKSGTYTFALYLTDDGSAMFLGNDAAFPCGNITSWSNPTNDQVSVSDYDPKKKTLTVYMVAGVAYPLRIAYYNREKGGSLTASFVDPDGLTHSDWNGYIWTLPSCDNCKYS
# Tests used:
# Experiment in all cases: glycan array binding signal (z-score within array); higher = stronger binding
# Conditions in all cases: glycan notation: IUPAC condensed, linker removed
# [1] = target: Neu5Ac(a2-6)Gal(b1-4)GlcNAc(b1-6)[Gal(b1-3)]GalNAc
# Outline: (§1)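 Columns mapping to the same glycan were averaged after glycan names were converted to IUPAC-condensed notation. The data come from 3228 arrays in the Consortium for Functional Glycomics database, limited to those with an available protein sequence. Binding is reported as a within-array Z-score averaged across arrays of one protein sequence and across linkers.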
# [2] = target: Neu5Ac(a2-6)Gal(b1-4)GlcNAc6S
# Outline: as §1
# Neu5Ac(a2-6)GalNAc = target: Neu5Ac(a2-6)GalNAc
# Outline: as §1
# [3] = target: Neu5Ac(a2-6)GalNAc(b1-4)GlcNAc
# Outline: as §1
# [4] = target: Neu5Ac(a2-6)GalNAc(b1-4)GlcNAc6S
# Outline: as §1
# [5] = target: Neu5Ac(a2-6)GlcNAc(b1-4)GlcNAc
# Outline: as §1
# [6] = target: Neu5Ac(a2-6)GlcNAc(b1-4)GlcNAc(b1-4)GlcNAc
# Outline: as §1
# Neu5Ac(a2-8)Neu5Ac = target: Neu5Ac(a2-8)Neu5Ac
# Outline: as §1
# [7] = target: Neu5Ac(a2-8)Neu5Ac(a2-3)Gal(b1-3)GalNAc(b1-4)[Neu5Ac(a2-3)]Gal(b1-4)Glc
# Outline: as §1
# [8] = target: Neu5Ac(a2-8)Neu5Ac(a2-3)Gal(b1-3)GalNAc(b1-4)[Neu5Ac(a2-8)Neu5Ac(a2-3)]Gal(b1-4)Glc
# Outline: as §1
# [9] = target: Neu5Ac(a2-8)Neu5Ac(a2-3)Gal(b1-4)Glc
# Outline: as §1
# [10] = target: Neu5Ac(a2-8)Neu5Ac(a2-3)Gal(b1-4)GlcNAc
# Outline: as §1
# [11] = target: Neu5Ac(a2-8)Neu5Ac(a2-3)[Gal(b1-3)GalNAc(b1-4)]Gal(b1-4)Glc
# Outline: as §1
# [12] = target: Neu5Ac(a2-8)Neu5Ac(a2-3)[GalNAc(b1-4)]Gal(b1-4)Glc
# Outline: as §1
# [13] = target: Neu5Ac(a2-8)Neu5Ac(a2-8)Neu5Ac
# Outline: as §1
# [14] = target: Neu5Ac(a2-8)Neu5Ac(a2-8)Neu5Ac(a2-3)Gal(b1-4)Glc
# Outline: as §1
# [15] = target: Neu5Ac(a2-8)Neu5Ac(a2-8)Neu5Ac(a2-3)[Gal(b1-3)GalNAc(b1-4)]Gal(b1-4)Glc
# Outline: as §1
# [16] = target: Neu5Ac(a2-8)Neu5Ac(a2-8)Neu5Ac(a2-3)[GalNAc(b1-4)]Gal(b1-4)Glc
# Outline: as §1
# [17] = target: Neu5Ac(a2-8)Neu5Ac(a2-8)Neu5Ac(a2-8)Neu5Ac(a2-3)[GalNAc(b1-4)]Gal(b1-4)Glc
# Outline: as §1
# [18] = target: Neu5Ac(a2-8)Neu5Gc(a2-3)Gal(b1-4)GlcNAc
# Outline: as §1
# [19] = target: Neu5Ac(b2-6)Gal(b1-4)GlcNAc
# Outline: as §1
# Neu5Ac(b2-6)GalNAc = target: Neu5Ac(b2-6)GalNAc
# Outline: as §1
# [20] = target: Neu5Ac9Ac(a2-3)Gal(b1-3)GlcNAc
# Outline: as §1
# [21] = target: Neu5Ac9Ac(a2-3)Gal(b1-4)GlcNAc
# Outline: as §1
# [22] = target: Neu5Ac9Ac(a2-6)Gal(b1-4)GlcNAc
# Outline: as §1
# [23] = target: Neu5Gc(a2-3)Gal(b1-3)GlcNAc
# Outline: as §1
# [24] = target: Neu5Gc(a2-3)Gal(b1-3)[Fuc(a1-4)]GlcNAc
# Outline: as §1
# Neu5Gc(a2-3)Gal(b1-4)Glc = target: Neu5Gc(a2-3)Gal(b1-4)Glc
# Outline: as §1
# [25] = target: Neu5Gc(a2-3)Gal(b1-4)GlcNAc
# Outline: as §1
# [26] = target: Neu5Gc(a2-3)Gal(b1-4)GlcNAc(b1-3)Gal(b1-4)GlcNAc(b1-2)Man(a1-3)[Neu5Gc(a2-3)Gal(b1-4)GlcNAc(b1-3)Gal(b1-4)GlcNAc(b1-2)Man(a1-6)]Man(b1-4)GlcNAc(b1-4)GlcNAc
# Outline: as §1
# [27] = target: Neu5Gc(a2-3)Gal(b1-4)[Fuc(a1-3)]GlcNAc
# Outline: as §1
# [28] = target: Neu5Gc(a2-6)Gal(b1-4)GlcNAc
# Outline: as §1
# Neu5Gc(a2-6)GalNAc = target: Neu5Gc(a2-6)GalNAc
# Outline: as §1
# [29] = target: Neu5Gc(a2-8)Neu5Ac(a2-3)Gal(b1-4)GlcNAc
# Outline: as §1
# [30] = target: Neu5Gc(a2-8)Neu5Gc(a2-3)Gal(b1-4)GlcNAc
# Outline: as §1
# [31] = target: Neu5Gc(a2-8)Neu5Gc(a2-3)Gal(b1-4)GlcNAc(b1-3)Gal(b1-4)GlcNAc
# Outline: as §1
# [32] = target: Neu5Gc(a2-8)Neu5Gc(a2-6)Gal(b1-4)GlcNAc
# Outline: as §1
# [33] = target: Neu5Gc(b2-6)Gal(b1-4)GlcNAc
# Outline: as §1
binder,measurement,setting,value
B1,glycan array binding signal (z-score),[1],0.496
same,glycan array binding signal (z-score),[2],0.062
same,glycan array binding signal (z-score),Neu5Ac(a2-6)GalNAc,-0.9
same,glycan array binding signal (z-score),[3],0.016
same,glycan array binding signal (z-score),[4],0.154
same,glycan array binding signal (z-score),[5],0.199
same,glycan array binding signal (z-score),[6],-0.434
same,glycan array binding signal (z-score),Neu5Ac(a2-8)Neu5Ac,0.955
same,glycan array binding signal (z-score),[7],-0.085
same,glycan array binding signal (z-score),[8],-0.33
same,glycan array binding signal (z-score),[9],-0.431
same,glycan array binding signal (z-score),[10],-0.648
same,glycan array binding signal (z-score),[11],-0.208
same,glycan array binding signal (z-score),[12],0.429
same,glycan array binding signal (z-score),[13],-0.343
same,glycan array binding signal (z-score),[14],-0.053
same,glycan array binding signal (z-score),[15],0.603
same,glycan array binding signal (z-score),[16],0.88
same,glycan array binding signal (z-score),[17],0.069
same,glycan array binding signal (z-score),[18],-0.328
same,glycan array binding signal (z-score),[19],-0.537
same,glycan array binding signal (z-score),Neu5Ac(b2-6)GalNAc,-0.387
same,glycan array binding signal (z-score),[20],-0.436
same,glycan array binding signal (z-score),[21],-1.15
same,glycan array binding signal (z-score),[22],-0.662
same,glycan array binding signal (z-score),[23],-0.313
same,glycan array binding signal (z-score),[24],-1.13
same,glycan array binding signal (z-score),Neu5Gc(a2-3)Gal(b1-4)Glc,-0.406
same,glycan array binding signal (z-score),[25],-0.381
same,glycan array binding signal (z-score),[26],0.719
same,glycan array binding signal (z-score),[27],-0.557
same,glycan array binding signal (z-score),[28],-0.996
same,glycan array binding signal (z-score),Neu5Gc(a2-6)GalNAc,-1.42
same,glycan array binding signal (z-score),[29],-0.088
same,glycan array binding signal (z-score),[30],-0.224
same,glycan array binding signal (z-score),[31],-0.362
same,glycan array binding signal (z-score),[32],-0.163
same,glycan array binding signal (z-score),[33],-0.407

# Given tab-delimited: entries from further up
binder	measurement	setting	value
B1	glycan array binding signal (z-score)	[1]	0.496
same	glycan array binding signal (z-score)	[2]	0.062
same	glycan array binding signal (z-score)	Neu5Ac(a2-6)GalNAc	-0.9
same	glycan array binding signal (z-score)	[3]	0.016
same	glycan array binding signal (z-score)	[4]	0.154
same	glycan array binding signal (z-score)	[5]	0.199
same	glycan array binding signal (z-score)	[6]	-0.434
same	glycan array binding signal (z-score)	Neu5Ac(a2-8)Neu5Ac	0.955
same	glycan array binding signal (z-score)	[7]	-0.085

# — the supplement of paper PMC8728848
